This is an account of results in paper PMC8287910.

Series [1] has as its target SLX4 CCD (F5) (Saccharomyces cerevisiae) (UniProt Q12098). Description: EMSA. Particulars: 30:1 and 60:1 protein:DNA, without SLX1; recombinant protein; residues 675-748; protein details: 6xHis. For orientation: In EMSA bound probe runs differently from free probe, usually more slowly.
Series [2] deals with SLX4 SAP+CCD (F1) (Saccharomyces cerevisiae) (UniProt Q12098). As to the kind of experiment: EMSA. Particulars: 30:1 and 60:1 protein:DNA, without SLX1; recombinant protein; residues 610-748; protein details: 6xHis.
Series [3] addresses SLX4 CCD (F5) (Saccharomyces cerevisiae) (UniProt Q12098). As to the kind of experiment: fluorescence polarization. Particulars: without SLX1; FPA: 100 nM FAM-DNA, 20 mM Tris pH 8.0, 100 mM NaCl, 30 min, room temperature, Hill slope fit; DNA annealed in 20 mM Tris pH 8.0, 150 mM NaCl; recombinant protein; residues 675-748; protein details: 6xHis. A general note: In fluorescence polarisation assays a small probe gives low polarisation when free and higher when bound to something large.

In series [4] the target is SLX4 SAP+CCD (F1) (Saccharomyces cerevisiae) (UniProt Q12098). As to the kind of experiment: fluorescence polarization. Conditions: without SLX1; FPA: 100 nM FAM-DNA, 20 mM Tris pH 8.0, 100 mM NaCl, 30 min, room temperature, Hill slope fit; DNA annealed in 20 mM Tris pH 8.0, 150 mM NaCl; recombinant protein; residues 610-748; protein details: 6xHis.
Another series has as its system SLX1 + SLX4 F2. Description: fluorescence polarization. Conditions: Kd value shown only in Fig 3A; FPA: 100 nM FAM-DNA, 20 mM Tris pH 8.0, 100 mM NaCl, 30 min, room temperature, Hill slope fit; DNA annealed in 20 mM Tris pH 8.0, 150 mM NaCl; recombinant protein; protein details: 6xHis.

For at least one entry, the source does not settle the construct or the ends of the probe. For some of these results: No signal at the amounts used counts as a negative.

As for “ACCAGTGCCTTGCTAGGACATCTTTGCCCA / TGGGCAAAGATGTCCATCTGTTGTAATCGT / ACGATTACAACAGAT [5'-flap DNA, EMSA]”, the binding result in series [1] is reported as “no binding”; in series [2] it was “binds”.
Turning to “ACCAGTGCCTTGCTAGGACATCTTTGCCCA / TGGGCAAAGATGTCCATCTGTTGTAATCGT / ACGATTACAACAGATCATGGAGCTGTCTAG / CTAGACAGCTCCATGTAGCAAGGCACTGGT [Holliday junction (XO-1/XO-2/XO-3/XO-4)]”, the binding result in series [1] is listed as “no binding”; in series [2], “binds”.
Consider “ACCAGTGCCTTGCTAGGACATCTTTGCCCA / TGGGCAAAGATGTCCATCTGTTGTAATCGT / ACGATTACAACAGAT [5'-flap DNA (Flap-15nt), FPA]”, for which the results for the Kd in series [3] and in series [4] were 34.2 µM and 1.4 µM, respectively. Also, the binding result in the series with SLX1 + SLX4 F2 was “binds”.
